Experiment: HPLC potency and stability of stored antibiotic solutions;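 note: stored antibiotic compositions assayed by HPLC for remaining potency, USP acceptance requires at least 90% of nominal concentration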
Details: composition of Example 2 (with L-glycine)

## CCN(CC)CC(=O)Nc1c(C)cccc1C [Lidocaine, 2-diethylamino-N-(2,6-dimethylphenyl)acetamide]
Day 0
  Stability of the composition (assay %): 100%
Day 30
  Stability of the composition (assay %): 102.2%
Day 60
  Stability of the composition (assay %): 96.1%
Day 90
  Stability of the composition (assay %): 100.6%
Day 180
  Stability of the composition (assay %): 102.7%

Source: patent US20230302032A1, “ANTIBACTERIAL COMPOSITIONS AND METHODS FOR FABRICATING THEREOF” (Harrow IP LLC, priority 2020, published 2023)
